Assay results from PubChem BioAssay AID1487 (National Center for Advancing Translational Sciences (NCATS), 2009).
The list shows a part of the results. Shown are side measurements of this screen, not its main read-out; they come without a call. The list favours compounds with an active or inconclusive main result. Potencies come from curve fits of mixed quality, noted in brackets.

Experiment: qHTS Assay for Modulators of Lamin A Splicing
Settings: HeLa LMNA splicing GFP/RFP minigene ratio, 48 h
Procedure, shortened: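 Read-out is the ratio of GFP to DsRed2 object intensity, acquired by 488 nm laser-scanning cytometry on HeLa lamin A-EGFP minigene reporter cells. Compound incubation 48 hrs at 37 °C in Opti-MEM with 2% FBS; DMSO 0.5% final.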

[1] = measured here: GFP splicing reporter channel
[2] = measured here: RFP viability control channel

Row | SMILES | AC50 [1] | AC50 [2]
1 | Cn1nc(C(=O)Nc2ccc(S(=O)(=O)N3CCOCC3)cc2)c2ccccc2c1=O | 0.631 µM [rising, partial curve] | –
2 | C#Cc1cccc(Nc2ncnc3cc(OCCOC)c(OCCOC)cc23)c1 | 5.62 µM [falling, full curve, poor fit] | –
3 | COc1ccccc1CNc1nc(-c2ccoc2)nc2ccccc12 | 7.08 µM [falling, partial curve] | 8.91 µM [falling, partial curve]
4 | C=CCn1c(SCCC)nc2sc3c(c2c1=O)CCc1ccccc1-3 | 12.6 µM [falling, partial curve] | –
5 | Cc1nn(-c2ccccc2)c(N2CCCC2)c1/C=N/NC(=O)c1cc(-c2ccccn2)nc2ccccc12 | – | 12.6 µM [rising, partial curve]
6 | Cc1cccc(N/N=C(\C(N)=O)C2=NC(C)(C)Cc3ccccc32)c1 | 12.6 µM [rising, partial curve] | 15.8 µM [rising, partial curve]
7 | CCOC(=O)c1c(C)sc(Sc2ccc(Cl)cc2[N+](=O)[O-])c1OC | 35.5 µM [rising, single point] | 35.5 µM [rising, single point]
8 | COc1ccc(N(CC(O)Cn2cnc3ccccc32)S(=O)(=O)c2ccc(C)cc2)cc1 (configuration not stated) | – | 35.5 µM [rising, single point]
9 | CC(NC(=O)NC1CCCCC1)c1ccccc1 (configuration not stated) | – | 20 µM [rising, single point]
10 | Cc1ccc(NC(=O)C(NC2CCCc3ccccc32)c2ccccc2)c([N+](=O)[O-])c1 (configuration not stated) | 7.94 µM [rising, single point] | 15.8 µM [rising, single point]
11 | N#Cc1cccc(-c2nc(NCc3ccccc3)c3ccccc3n2)c1 | 35.5 µM [falling, single point] | 22.4 µM [falling, single point]
12 | COc1ccc(CNc2ncnc3ccc(-c4ccccc4OC)cc23)c(OC)c1 | 10 µM [falling, partial curve] | 11.2 µM [falling, partial curve]
13 | CC1Cc2ccccc2N1C(=O)CSc1nnnn1-c1ccc2c(c1)OCCO2 (configuration not stated) | 20 µM [rising, partial curve, poor fit] | –
14 | O=C(CSCc1cc(=O)c2ccccc2[nH]1)Nc1cccc(C(F)(F)F)c1 | 0.447 µM [rising, partial curve, poor fit] | 0.562 µM [rising, partial curve, poor fit]
15 | C=C(C)Cn1c(C)cc(C)c(S(=O)(=O)c2ccccc2C)c1=O | 15.8 µM [rising, single point] | –

Structures listed so far with a thiophene ring, fused or not, in the order listed:
Row | SMILES | AC50 [1] | AC50 [2]
4 | C=CCn1c(SCCC)nc2sc3c(c2c1=O)CCc1ccccc1-3 | 12.6 µM [falling, partial curve] | –
7 | CCOC(=O)c1c(C)sc(Sc2ccc(Cl)cc2[N+](=O)[O-])c1OC | 35.5 µM [rising, single point] | 35.5 µM [rising, single point]
